No constants are given. Whether binding was seen depends on the method and setting.

The chains behind the UniProt entries cited, without tags or fusion partners. Where a name states a change or a piece, a line headed by the entry shows the natural chain unless it says otherwise. Residues count along the entry.
UniProt P02453: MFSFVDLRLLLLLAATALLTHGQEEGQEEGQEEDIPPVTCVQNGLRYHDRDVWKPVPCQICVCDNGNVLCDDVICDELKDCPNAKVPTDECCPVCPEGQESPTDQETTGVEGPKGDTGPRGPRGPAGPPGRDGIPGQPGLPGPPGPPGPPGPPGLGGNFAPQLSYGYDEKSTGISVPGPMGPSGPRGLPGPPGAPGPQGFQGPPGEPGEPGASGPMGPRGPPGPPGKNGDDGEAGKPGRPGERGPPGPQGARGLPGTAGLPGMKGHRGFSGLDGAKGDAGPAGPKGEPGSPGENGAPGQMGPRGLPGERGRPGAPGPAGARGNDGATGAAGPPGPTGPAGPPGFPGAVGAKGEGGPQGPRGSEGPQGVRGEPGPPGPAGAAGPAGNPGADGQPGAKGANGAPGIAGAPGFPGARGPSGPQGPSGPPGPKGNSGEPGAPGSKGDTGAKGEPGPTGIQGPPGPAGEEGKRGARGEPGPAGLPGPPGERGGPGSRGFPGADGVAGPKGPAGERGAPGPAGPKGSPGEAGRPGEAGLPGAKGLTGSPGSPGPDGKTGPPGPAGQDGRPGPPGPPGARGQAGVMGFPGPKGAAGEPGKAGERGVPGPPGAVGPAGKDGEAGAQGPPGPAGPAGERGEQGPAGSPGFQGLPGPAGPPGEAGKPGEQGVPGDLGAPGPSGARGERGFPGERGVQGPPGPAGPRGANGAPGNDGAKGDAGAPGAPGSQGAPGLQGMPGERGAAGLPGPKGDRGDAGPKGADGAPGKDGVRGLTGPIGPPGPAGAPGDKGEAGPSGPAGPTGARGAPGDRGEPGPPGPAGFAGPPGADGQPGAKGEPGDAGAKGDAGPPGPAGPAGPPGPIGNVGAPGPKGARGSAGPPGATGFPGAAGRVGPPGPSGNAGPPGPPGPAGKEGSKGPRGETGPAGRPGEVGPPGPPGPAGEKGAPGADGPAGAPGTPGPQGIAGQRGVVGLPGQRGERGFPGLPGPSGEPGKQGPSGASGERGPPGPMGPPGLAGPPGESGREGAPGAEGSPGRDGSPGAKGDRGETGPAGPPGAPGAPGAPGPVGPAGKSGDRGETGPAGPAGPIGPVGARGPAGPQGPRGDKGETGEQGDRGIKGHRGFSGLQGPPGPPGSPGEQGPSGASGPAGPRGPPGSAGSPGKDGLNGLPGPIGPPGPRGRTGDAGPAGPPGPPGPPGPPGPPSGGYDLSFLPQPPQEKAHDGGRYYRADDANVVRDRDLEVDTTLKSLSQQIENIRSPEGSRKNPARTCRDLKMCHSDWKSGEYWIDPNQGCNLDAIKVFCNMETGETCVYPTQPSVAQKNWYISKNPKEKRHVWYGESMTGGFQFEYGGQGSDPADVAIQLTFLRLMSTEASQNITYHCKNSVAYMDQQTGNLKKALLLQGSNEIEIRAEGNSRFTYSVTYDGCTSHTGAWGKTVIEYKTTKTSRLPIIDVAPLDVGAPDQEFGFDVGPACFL
UniProt P02769, residues 25-607: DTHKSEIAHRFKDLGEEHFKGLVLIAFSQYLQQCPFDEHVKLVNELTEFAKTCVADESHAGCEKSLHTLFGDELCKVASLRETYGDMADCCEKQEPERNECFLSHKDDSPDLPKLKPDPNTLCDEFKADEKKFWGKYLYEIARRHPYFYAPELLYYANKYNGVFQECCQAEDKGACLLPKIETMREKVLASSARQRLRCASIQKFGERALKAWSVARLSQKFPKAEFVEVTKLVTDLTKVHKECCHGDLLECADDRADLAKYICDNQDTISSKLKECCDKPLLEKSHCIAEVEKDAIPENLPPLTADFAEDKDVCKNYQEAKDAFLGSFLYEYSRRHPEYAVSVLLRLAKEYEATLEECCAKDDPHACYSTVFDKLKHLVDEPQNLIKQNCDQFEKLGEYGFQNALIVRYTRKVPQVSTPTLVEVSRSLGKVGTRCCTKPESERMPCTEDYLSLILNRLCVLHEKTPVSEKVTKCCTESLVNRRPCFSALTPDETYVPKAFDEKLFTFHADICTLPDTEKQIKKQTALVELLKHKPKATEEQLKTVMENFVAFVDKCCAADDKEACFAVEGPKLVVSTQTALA

For this test, the target named is T1, insoluble type I collagen fibers (UniProt P02453 162-1217; P02465 80-1117).
T1 construct: type I collagen, alpha-1(I) chain; type I collagen, alpha-2(I) chain; Triple-helical, insoluble fibres; also called insoluble collagen fibers; native collagen; source: bought: Sigma‐Aldrich
Kind of test: collagen-binding assay (unbound protein in the filtrate by SDS/PAGE); protein (with BSA) incubated with insoluble type I collagen fibers in binding buffer (50 mM Tris/HCl, 0.2 M NaCl, 5 mM CaCl2, pH 7.5), room temperature, 30 min, 0.22 μm centrifugal filter unit; filtrate analysed by …; both purified.

In the case of BSA (from UniProt P02769 25-607), the binding entry is on record as “no binding (tested: 0.2 mg·mL^−1)”.

The record behind these values is paper PMC6168687, “The C‐terminal segment of collagenase in Grimontia hollisae binds collagen to enhance collagenolysis” (FEBS Open Bio, 2018).
